# In paper PMC7693140:
# By UniProt entry, the sequences of proteins in these tests, tags left out.
# UniProt O15392: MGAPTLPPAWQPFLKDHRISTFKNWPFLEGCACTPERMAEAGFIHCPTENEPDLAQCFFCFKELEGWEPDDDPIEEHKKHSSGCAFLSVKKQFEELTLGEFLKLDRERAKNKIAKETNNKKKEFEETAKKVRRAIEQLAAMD
# Results are given in words; binding and its absence hold for the method and conditions named. In cells and extracts the contact can be indirect. Some results given as binding are weak or reduced against the parent protein; the word gives no strength.
# Target: human Survivin expressed from pCMV-Survivin (human) (UniProt O15392)
# Assay: co-IP
binder,measurement,value
"JCPyV large T-Antigen expressed from pcDNA3.1/Zeo(+)/JCT in U87-MG cells (protein, UniProt P03072 1-688) MDKVLNREESMELMDLLGLDRSAWGNIPVMRKAYLKKCKELHPDKGGDEDKMKRMNFLYKKMEQGVKVAHQPDFGTWNSSEVPTYGTDEWESWWNTFNEKWDEDLFCHEEMFASDDENTGSQHSTPPKKKKKVEDPKDFPVDLHAFLSQAVFSNRTVASFAVYTTKEKAQILYKKLMEKYSVTFISRHGFGGHNILFFLTPHRHRVSAINNYCQKLCTFSFLICKGVNKEYLFYSALCRQPYAVVEESIQGGLKEHDFNPEEPEETKQVSWKLVTQYALETKCEDVFLLMGMYLDFQENPQQCKKCEKKDQPNHFNHHEKHYYNAQIFADSKNQKSICQQAVDTVAAKQRVDSIHMTREEMLVERFNFLLDKMDLIFGAHGNAVLEQYMAGVAWIHCLLPQMDTVIYDFLKCIVLNIPKKRYWLFKGPIDSGKTTLAAALLDLCGGKSLNVNMPLERLNFELGVGIDQFMVVFEDVKGTGAESRDLPSGHGISNLDCLRDYLDGSVKVNLERKHQNKRTQVFPPGIVTMNEYSVPRTLQARFVRQIDFRPKAYLRKSLSCSEYLLEKRILQSGMTLLLLLIWFRPVADFAAAIHERIVQWKERLDLEISMYTFSTMKANVGMGRPILDFPREEDSEAEDSGHGSSTESQSQCFSQVSEASGADTQENCTFHICKGFQCFKKPKTPPPK",binding,binds
